Laboratory results reported in the supplement of paper PMC8104966.
Some of the results follow. Repeats in this data set agree poorly, so a single value says little.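 U2OS cells carrying ACE2 were mixed with U2OS cells carrying full-length spike, and fusion was scored by imaging as the share of nuclei showing both cell types' fluorescent markers. A compound counts as an inhibitory hit when it is non-toxic and its fusion z-score falls below -3, meaning more than three standard deviations below the plate's DMSO wells.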

What follows are compounds tested on U2OS ACE2 x SARS-CoV-2 spike co-culture (assay: cell-cell fusion (fraction fused) z-score vs plate DMSO control; higher = more fusion). Conditions: 30 µM; 5 h; toxicity class: non-toxic, passed QC.

Row | SMILES | cell-cell fusion (z-score)
1 | NC(=O)c1ccc(N(C(N)=O)c2c(F)cccc2F)nc1-c1ccc(F)cc1F | inactive: 1.44
2 | C=CCN=C=S | inactive: 1.5
3 | N=C(N)NOCC[C@H](N)C(=O)O.O=S(=O)(O)O [L-Canavanine sulfate] | inactive: -2.71
4 | NNC(=O)c1ccncc1.Nc1ccc(C(=O)O)c(O)c1 | inactive: 3.12
5 | Cc1cccc(CN2CCN(C(c3ccccc3)c3ccc(Cl)cc3)CC2)c1.Cl.Cl (stereo not drawn) [Meclizine dihydrochloride] | inactive: 0.237
6 | CC1=CCc2c(cc3oc(C)cc(=O)c3c2O)OC1 | inactive: 1.52
7 | Cc1nc2n(c(=O)c1CCN1CCC(c3noc4cc(F)ccc34)CC1)CCC[C@H]2O | inactive: 1.32
8 | Cc1cccc(Nc2ccccc2C(=O)O)c1C | inactive: 1.99
9 | Fc1ccc2[nH]c(CN3CCN(c4ccccn4)CC3)cc2c1 | inactive: 2.96
10 | CNCC(O)c1ccc(OC(=O)C(C)(C)C)c(OC(=O)C(C)(C)C)c1.Cl (stereo not drawn) [Dipivefrin hydrochloride] | active: -3.29
11 | OC[C@H]1O[C@@H](n2cnc3c(NC4CCCCC4)ncnc32)[C@H](O)[C@@H]1O [N6-Cyclohexyladenosine] | inactive: -0.408
12 | CCOC(=O)COc1ccc2c(=O)cc(-c3ccccc3)oc2c1 | inactive: 1.24
13 | O=C(O)c1ccccc1 | inactive: -0.542
14 | CC(=O)Nc1ncc([N+](=O)[O-])s1 | inactive: 1.15
15 | OC[C@@H]1CCCN2CCCC[C@H]12 | inactive: 2.99
16 | Nc1ncnc2nc[nH]c12 [Adenine] | inactive: 3.09
17 | NS(=O)Oc1cc(C(=O)O)c(NCc2ccco2)cc1Cl (stereo not drawn) [Furosemide] | inactive: 2.53
18 | CC(Cc1ccc(O)c(O)c1)C(C)Cc1ccc(O)c(O)c1 (stereo not drawn) [Nordihydroguaiaretic acid] | active: -3.01
19 | C=CCc1ccccc1OCC(O)CNC(C)C.Cl (stereo not drawn) | inactive: 1.8
20 | C=CCc1ccccc1OCC(O)CNC(C)C.Cl (stereo not drawn) [Alprenolol hydrochloride] | inactive: 1.2
21 | CN(C)CCOC(c1ccc(Cl)cc1)c1ccccn1.O=C(O)/C=C\C(=O)O (stereo not drawn) | inactive: 0.205
22 | C=C1C/C=C(\C)CC[C@@H]2[C@@H]1CC2(C)C | inactive: 2.92
23 | Cc1[nH]cnc1CN1CCc2c(c3ccccc3n2C)C1=O.Cl [Alosetron hydrochloride] | inactive: 1.92
24 | C#Cc1cccc(Nc2ncnc3cc(OC)c(OCCCCCCC(=O)NO)cc23)c1 | inactive: 1.88
25 | CC1(C)O[C@@H]2C[C@H]3[C@@H]4CCC5=CC(=O)C=C[C@]5(C)[C@H]4[C@@H](O)C[C@]3(C)[C@]2(C(=O)CO)O1 [Desonide] | inactive: 2.96
26 | NCc1cccnc1 | inactive: 2.78
27 | Oc1cc(O)cc(/C=C/c2ccc(O)c(O)c2)c1 [Piceatannol] | inactive: 0.312

Row | SMILES | cell-cell fusion (z-score)
28 | COc1cc(Nc2nc3ccccc3nc2NS(=O)(=O)c2ccc(NC(=O)c3ccc(C)c(OC)c3)cc2)cc(OC)c1 | inactive: 2.03
29 | C[C@H]1[C@H](C)CC[C@]2(C(=O)O)CC[C@]3(C)C(=CCC4[C@@]5(C)C[C@@H](O)[C@H](O)[C@@](C)(CO)C5CC[C@]43C)[C@H]12 (stereo partly drawn) | inactive: 1.93
30 | O=C(O)CCc1ccc(NCc2cccc(Oc3ccccc3)c2)cc1 | inactive: 0.884
31 | CC1(C)O[C@@H]2CC3C4C[C@H](F)C5=CC(=O)C=CC5(C)C4C(O)CC3(C)[C@]2(C(=O)CO)O1 (stereo partly drawn) | inactive: 1.47
32 | CC(CNCCc1ccc(O)c(O)c1)Cc1cccc(O)c1.Cl (stereo not drawn) | inactive: 1.11
33 | Cc1onc(-c2ccccc2)c1-c1ccc(S(N)(=O)=O)cc1 [Valdecoxib] | inactive: 1.04
34 | C=CC[C@]1(O)CC[C@H]2[C@@H]3CCC4=CC(=O)CCC4=C3C=C[C@@]21C | inactive: 3.81
35 | CCOC(=S)SSC(=S)OCC | inactive: 3.4
36 | c1ccc2c(c1)CC(N1CCN(c3cccc4c3OCCO4)CC1)C2 | inactive: 2.06
37 | C[C@H](NC(=O)/C(C#N)=C/c1cccc(Br)n1)c1ccccc1 | inactive: -1.28
38 | CC(c1cc2ccccc2s1)N(O)C(N)=O (stereo not drawn) | inactive: 2.31
39 | C[C@]12CCC3C(CC[C@]4(O)C[C@@H](O)CC[C@]34C=O)[C@@]1(O)CCC2C1=CC(=O)OC1 (stereo partly drawn) | inactive: 0.625
40 | C[C@H](N[C@@H](CCc1ccccc1)C(=O)O)C(=O)N1Cc2ccccc2C[C@H]1C(=O)O | inactive: 2.32
41 | Cc1cc(NS(=O)(=O)c2ccc(N)cc2)no1 | inactive: 1.98
42 | CC(C(=O)O)c1ccc(C(=O)c2cccs2)cc1 (stereo not drawn) [Suprofen] | inactive: 1.65
43 | COc1cc(C(=O)NCc2ccc(OCCN(C)C)cc2)cc(OC)c1OC.Cl [Trimethobenzamide hydrochloride] | inactive: 1.47
44 | CCOC(=O)C(Cc1ccc(O)cc1)NC(C)=O (stereo not drawn) | inactive: 2.99
45 | C[C@@H]1CCN(C(=O)CC#N)C[C@@H]1N(C)c1ncnc2[nH]ccc12 [Tofacitinib] | inactive: -0.0526
46 | CC1CCc2cc(F)cc3c(=O)c(C(=O)O)cn1c23 (stereo not drawn) | inactive: 0.449
47 | O=C(c1ccc(Br)cc1)N1CC2C3CCC(O3)C2C1 (stereo not drawn) [Pseudocantharidin C] | inactive: 1.97
48 | COc1ccc2c(c1)OC/C(=C\c1ccc(OC)c(O)c1)C2=O | inactive: -0.198
49 | CS(=O)(=O)O.Cc1ccc(N(CC2=NCCN2)c2cccc(O)c2)cc1 [Phentolamine mesilate] | inactive: 2.04
50 | COC(=O)/C=C/C(=O)OC | inactive: 1.65
51 | O=c1[nH]c2cc(Cl)ccc2c(O)c1-c1ccc(Oc2ccccc2)cc1 | inactive: 1.62
52 | O=C(O)/C=C/c1ccccc1 | inactive: 2.47
53 | NCCS(=O)(=O)O [Taurine] | inactive: 1.2

Some values from above.
CC(CNCCc1ccc(O)c(O)c1)Cc1cccc(O)c1.Cl (stereo not drawn) – cell-cell fusion (z-score): inactive: 1.11
CS(=O)(=O)O.Cc1ccc(N(CC2=NCCN2)c2cccc(O)c2)cc1 [Phentolamine mesilate] – cell-cell fusion (z-score): inactive: 2.04
CC(c1cc2ccccc2s1)N(O)C(N)=O (stereo not drawn) – cell-cell fusion (z-score): inactive: 2.31
c1ccc2c(c1)CC(N1CCN(c3cccc4c3OCCO4)CC1)C2 – cell-cell fusion (z-score): inactive: 2.06
CCOC(=O)C(Cc1ccc(O)cc1)NC(C)=O (stereo not drawn) – cell-cell fusion (z-score): inactive: 2.99
